The list shows a part of the results. Shown are side measurements of this screen, not its main read-out; they come without a call. Most of these compounds were active or inconclusive in the main read-out, so they are no random draw. Words in brackets tell the shape of the fitted curve; partial curves, single points and poor fits give uncertain potencies.

The test in a line: Cell signaling CRE-BLA (Fsk stim). The following applies: CHO CRE-bla reporter (cAMP response element driving beta-lactamase), forskolin EC10, beta-lactamase ratio; measured here: 460 nm blue channel. In outline:
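Using CellSensor CRE-bla CHO cells in Opti-MEM with 0.5% dialyzed FBS, compounds were titrated with EC10 NKH 477 for 3 h at 37 °C. CCF4 ratio (460/530 nm) gave %Activity; AC50 derived.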
For the compound `COc1ccc(-c2nc3oc4cc(OC)ccc4c(=O)c3c(=O)n2Cc2ccco2)cc1`, the AC50 (in general, the midpoint of the concentration-response curve, whichever way the signal moves) is 0.631 µM [rising, full curve].

As for `CC1Cc2nc(SCC(=O)Nc3ccc4c(c3)OCO4)n(-c3ccc(F)cc3)c(=O)c2S1` (stereo not drawn), the AC50 is 7.94 µM [rising, partial curve].

On to `C=CCn1cc(C(=O)NCc2cccnc2)c(=O)c2cc(S(=O)(=O)N(CC)CC)ccc21`, for which the AC50 is 5.01 µM [rising, full curve].

As to `CCOC(=O)c1c(NC(=O)Cc2cccs2)sc(C(=O)N2CCCCC2)c1C`, the AC50 is 2.51 µM [rising, full curve].

Take `Cc1ccc(CCNC(=O)C2CCN(C(=O)c3sccc3-n3cccc3)CC2)cc1`: the AC50 is 0.00398 µM [falling, full curve, poor fit].

For `COc1ccc(-c2nc3cnc(Oc4ccccc4)nc3n(C3CC3)c2=O)cc1`, the AC50 was 10 µM [rising, partial curve].

For the compound `CCOC(=O)c1sc2ncn(C(CC)C(=O)OC)c(=O)c2c1C` (stereo not drawn), the half-maximal activity concentration (AC50) is 12.6 µM [rising, partial curve].

Take `Cc1cc(NC(=O)c2cc(-c3ccncc3)nc3c(C)cccc23)no1`: the AC50 was 10 µM [rising, partial curve].

Turning to `COCCN(CCOC)c1ncnc2c1cnn2-c1ccc(Cl)cc1`, the AC50 is 10 µM [rising, partial curve].

In the case of `CN(C)c1ccc(C(=O)OCC(=O)NC2CCCCC2)cc1`, the AC50 was 3.98 µM [falling, partial curve].

For the compound `NCCCCCCCCCCN`, the AC50 was 12.6 µM [falling, single point].

`Cc1ccc2oc(=O)c3cc(C(=O)N4CCN(C(=O)c5ccco5)CC4)sc3c2c1`: the AC50 was 3.16 µM [rising, single point].

With `COc1ccc(OCCOC(=O)c2cccc(-n3cnnn3)c2)cc1`, the AC50 was 10 µM [rising, partial curve].

Turning to `COC(=O)[C@@]1(Cc2ccccc2)[C@H]2c3cc(C(=O)N4CCCC4)[nH]c3C[C@H]2CN1C(=O)c1ccccc1`, the AC50 is 3.16 µM [rising, full curve].

On to `COc1ccc(C(CC(=O)O)NC(=O)COc2ccccc2)cc1OC` (stereo not drawn), for which the AC50 is 5.01 µM [falling, partial curve, poor fit].

Regarding `Cc1nn(Cc2ccccc2)c2sc(C(=O)NCc3cccnc3)cc12`, the AC50 is 20 µM [rising, single point].

Take `Cc1cc(Nc2ccc(F)cc2)n2nc(C)nc2n1`: the AC50 is 10 µM [rising, partial curve].

Regarding `O=C1c2ccccc2S(=O)(=O)N1CCOc1ccccc1`, the AC50 is 0.2 µM [falling, full curve, poor fit].

Regarding `Cc1ccsc1CN1CCN(c2ccccn2)CC1`, the AC50 is 0.00316 µM [falling, full curve, poor fit].

`COc1cccc(NC(=O)CCCn2c(=O)[nH]c3ccccc3c2=O)c1`: the AC50 was 1.26 µM [rising, partial curve].

`O=c1c(-c2ccc(F)cc2)nc2cnc(N3CCNCC3)nc2n1Cc1ccc(F)cc1`: the half-maximal activity concentration (AC50) was 2 µM [rising, full curve].

As for `COc1ccc(-n2c(=O)cnc3cnc(N(C)C)nc32)cc1`, the AC50 is 10 µM [rising, partial curve].

`CN(N=O)C(=O)N[C@H]1C(O)OC(CO)[C@@H](O)[C@H]1O` (stereo partly drawn): the AC50 is 12.6 µM [falling, partial curve, poor fit].

Take `Cn1c(C(=O)N2CCN(c3ccc(Cl)cc3)CC2)cc2c(=O)[nH]c3ccccc3c21`: the concentration at half-maximal activity (AC50) is 0.00316 µM [falling, full curve, poor fit].

`COc1ccccc1NC(=O)CSc1nccc(=O)[nH]1`: the AC50 is 0.398 µM [rising, full curve].

Turning to `N[C@@H](C(=O)O)c1ccc(C(=O)O)c(C(=O)O)c1`, the AC50 is 31.6 µM [falling, single point].

Turning to `CCOC(=O)C1CCCN(c2ncnc3c2cnn3-c2ccc(OC)cc2)C1` (stereo not drawn), the AC50 was 25.1 µM [rising, single point].

Consider `CC1=C(C#N)C(C(F)(F)F)(C(F)(F)F)N=C(c2ccco2)N1`, for which the half-maximal activity concentration (AC50) was 12.6 µM [falling, partial curve].

With `Cc1ccc(C(O)CN2C3=NCCN3c3ccccc32)cc1` (stereo not drawn), the AC50 is 5.01 µM [rising, single point].

With `COc1ccc(CC/C(=N\O)C2(O)CCCCC2)cc1`, the AC50 is 0.501 µM [falling, partial curve].

On to `COc1ccccc1-c1nnc(SC/C(O)=C(\C#N)c2nc3ccccc3[nH]2)n1C1CCCCC1`, for which the AC50 is 25.1 µM [rising, single point].

Take `COc1cc2c(cc1OC)-c1nnnn1C(C)(C)C2`: the AC50 is 12.6 µM [rising, partial curve].

For the compound `Cc1ccc(S(=O)(=O)N2CCOCC2)cc1C(=O)O`, the AC50 was 10 µM [rising, partial curve].

For `Cc1nc(Nc2ccc3c(c2)OCCO3)c2nnn(Cc3ccccc3Cl)c2n1`, the concentration at half-maximal activity (AC50) is 0.2 µM [falling, full curve, poor fit].

`CCn1c(C2CC(=O)N(c3ccc(C)c(C)c3)C2)nc2ccccc21` (stereo not drawn): the AC50 is 7.94 µM [rising, partial curve].

Turning to `COc1cccc(C2C(C#N)=C(N)OC3=C2C(=O)CC(c2ccco2)C3)c1OCc1ccc(F)cc1` (stereo not drawn), the AC50 is 3.98 µM [rising, single point].

Take `COc1ccc(CCNc2nc(-c3sc(N)nc3C)cs2)cc1OC`: the half-maximal activity concentration (AC50) is 2.51 µM [rising, partial curve].

For `O=C(CSc1nnnn1-c1ccc2c(c1)CCC2)Nc1ccc2c(c1)OCCO2`, the AC50 is 6.31 µM [falling, partial curve].

As for `N#CCn1c(C2CCCCC2)nc2ccccc2c1=O`, the AC50 is 1.58 µM [rising, full curve].

In the case of `O=C(O)c1ccccc1C(=O)OCCCCOC(=O)c1ccccc1C(=O)O`, the AC50 is 0.251 µM [rising, full curve].

On to `O=C(CNS(=O)(=O)c1ccc(Br)s1)NCc1ccc2c(c1)OCO2`, for which the half-maximal activity concentration (AC50) is 0.02 µM [falling, full curve, poor fit].

Regarding `CC(=O)Cc1nsc(NC(=O)c2ccc(Br)o2)n1`, the AC50 is 0.00398 µM [falling, full curve].

On to `CCCn1c(CCC(=O)O)ccc1-c1ccc(OC)cc1`, for which the AC50 is 25.1 µM [rising, single point].

As to `COc1ccc(-c2nc(C(N)=O)c3[nH]c(=O)n(-c4cccc(C)c4)c3n2)c(OC)c1`, the AC50 is 5.01 µM [rising, partial curve].

Take `CCOC(=O)COc1ccc2cc(C(=O)OCC)c(=O)oc2c1`: the AC50 is 1.26 µM [rising, partial curve, poor fit].

Take `CCCCCCn1c(CN2CCN(C(=O)c3ccco3)CC2)nc2c1c(=O)n(C)c(=O)n2C`: the AC50 was 12.6 µM [rising, partial curve].

Take `CN1CCN(c2ncc3nc(-c4ccc(Cl)cc4)c(=O)n(Cc4ccc(F)cc4)c3n2)CC1`: the AC50 is 1.58 µM [rising, full curve].

As to `Nc1ccc2nc(-c3ccc(Cl)cc3)[nH]c2c1`, the AC50 is 10 µM [rising, partial curve].

Regarding `Cc1ccc(C2C(C(=O)c3sc(C)nc3C)=C(O)C(=O)N2CCCN(C)C)o1` (stereo not drawn), the AC50 was 25.1 µM [falling, single point].

Turning to `O=C(c1ccccc1)n1nc(-c2ccccc2)nc1NCc1ccco1`, the AC50 was 6.31 µM [falling, partial curve].

For the compound `CCOC(=O)/C(C(C)=O)=C1\OC(=O)c2ccccc21`, the AC50 is 0.398 µM [falling, full curve, poor fit].

Consider `CN(C)c1nc(-c2cccnc2)nc2ccccc12`, for which the AC50 was 12.6 µM [rising, partial curve].

`Cc1cccc(N(CC(=O)Nc2ccc(CC#N)cc2)S(C)(=O)=O)c1`: the AC50 was 2.51 µM [falling, single point].

Consider `O=S1(=O)C=C(Sc2nc3cc(Cl)ccc3o2)c2ccccc21`, for which the concentration at half-maximal activity (AC50) was 0.794 µM [falling, full curve].

In the case of `CC(=O)Nc1c(OC(C)=O)ccc2c(C)cc(=O)oc12`, the half-maximal activity concentration (AC50) was 12.6 µM [rising, partial curve].

For `CC1=C(C(=O)OCc2ccccc2)C(c2ccc(C3CCCCC3)cc2)NC(=O)N1CCCCCC(=O)O` (stereo not drawn), the AC50 is 3.98 µM [rising, single point].

As to `CCOC(=O)c1[nH]c2c(c1C)C(=O)CC(c1ccco1)C2` (stereo not drawn), the half-maximal activity concentration (AC50) is 1.26 µM [rising, full curve].

Turning to `CCn1c(=O)c(C(=O)CN2CCCc3ccccc32)c(N)n(Cc2ccccc2)c1=O`, the concentration at half-maximal activity (AC50) is 3.98 µM [falling, partial curve].

Regarding `COc1ccc(C2OC(=O)c3ccccc3S2)cc1` (stereo not drawn), the AC50 was 0.794 µM [rising, full curve, poor fit].

As for `O=C(NCCN1CCN(c2ccccc2)CC1)c1cccn2c(=O)c3ccccc3nc12`, the AC50 was 3.16 µM [rising, partial curve].

As for `NCCn1c(=O)c(CCc2ccccc2)nc2cncnc21`, the AC50 is 15.8 µM [rising, single point].

As for `Cc1cc(C)c2nc(C(F)(F)F)nc(NCCCN3CCCC3=O)c2c1`, the AC50 was 3.98 µM [falling, single point].

Regarding `Nc1cc(-c2nn[nH]n2)ccc1F`, the AC50 was 0.316 µM [falling, partial curve].

Turning to `CN1C(=O)CSc2ccc(NC(=O)N3CCN(c4ccccn4)CC3)cc21`, the AC50 was 0.00398 µM [falling, full curve, poor fit].

For the compound `COc1ccc(CCNC(=O)c2noc3c2CCCC3)cc1OC`, the AC50 was 10 µM [rising, partial curve].

Take `Cc1cccc(N2CCN(C(=O)c3ccc(N4CCCC4=O)cc3)CC2C)c1` (stereo not drawn): the AC50 was 10 µM [rising, single point].

Turning to `CN(C)CCCCCNCCCNC(=O)/C=N\O`, the AC50 was 0.00316 µM [falling, full curve, poor fit].

On to `CCOC(=O)N1CCN(Cc2oc(CO)cc(=O)c2O)CC1`, for which the AC50 is 0.1 µM [falling, single point].

For the origin of these results see PubChem BioAssay AID662 (National Center for Advancing Translational Sciences (NCATS), 2007).
